Laboratory results as given in the supplement of paper PMC10849652.
The list shows a part of the results.

Sequences of proteins named here, by UniProt entry; tags and fusion partners are left off. A change or cut given only in a name is not applied to a line headed by its entry.
UniProt Q96RQ1: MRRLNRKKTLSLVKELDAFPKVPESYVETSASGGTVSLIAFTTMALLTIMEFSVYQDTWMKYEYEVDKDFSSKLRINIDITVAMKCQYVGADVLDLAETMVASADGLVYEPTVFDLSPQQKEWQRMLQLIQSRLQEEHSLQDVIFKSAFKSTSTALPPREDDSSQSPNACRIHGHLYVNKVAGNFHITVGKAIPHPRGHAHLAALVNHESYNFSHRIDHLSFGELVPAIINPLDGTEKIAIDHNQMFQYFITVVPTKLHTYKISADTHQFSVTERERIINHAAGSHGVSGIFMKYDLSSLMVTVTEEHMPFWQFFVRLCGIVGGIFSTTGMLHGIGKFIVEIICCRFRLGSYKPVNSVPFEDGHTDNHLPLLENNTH
UniProt O00303, whole entry, looked up: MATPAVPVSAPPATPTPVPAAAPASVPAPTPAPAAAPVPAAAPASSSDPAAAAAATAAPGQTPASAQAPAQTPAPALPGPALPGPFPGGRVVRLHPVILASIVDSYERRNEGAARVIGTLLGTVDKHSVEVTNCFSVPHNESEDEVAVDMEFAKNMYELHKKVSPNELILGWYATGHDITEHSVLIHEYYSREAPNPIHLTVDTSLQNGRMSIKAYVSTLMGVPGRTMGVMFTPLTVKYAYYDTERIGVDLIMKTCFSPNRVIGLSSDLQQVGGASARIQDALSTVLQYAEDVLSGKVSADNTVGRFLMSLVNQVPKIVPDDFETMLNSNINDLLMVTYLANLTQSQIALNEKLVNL
UniProt Q9P0I2: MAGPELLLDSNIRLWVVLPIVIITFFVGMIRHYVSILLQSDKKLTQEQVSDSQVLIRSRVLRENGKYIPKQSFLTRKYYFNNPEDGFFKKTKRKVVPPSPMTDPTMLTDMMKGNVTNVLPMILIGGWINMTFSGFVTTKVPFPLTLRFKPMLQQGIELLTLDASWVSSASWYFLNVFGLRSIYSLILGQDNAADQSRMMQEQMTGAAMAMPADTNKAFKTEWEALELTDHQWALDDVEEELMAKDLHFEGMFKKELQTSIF
UniProt P55884, whole entry, looked up: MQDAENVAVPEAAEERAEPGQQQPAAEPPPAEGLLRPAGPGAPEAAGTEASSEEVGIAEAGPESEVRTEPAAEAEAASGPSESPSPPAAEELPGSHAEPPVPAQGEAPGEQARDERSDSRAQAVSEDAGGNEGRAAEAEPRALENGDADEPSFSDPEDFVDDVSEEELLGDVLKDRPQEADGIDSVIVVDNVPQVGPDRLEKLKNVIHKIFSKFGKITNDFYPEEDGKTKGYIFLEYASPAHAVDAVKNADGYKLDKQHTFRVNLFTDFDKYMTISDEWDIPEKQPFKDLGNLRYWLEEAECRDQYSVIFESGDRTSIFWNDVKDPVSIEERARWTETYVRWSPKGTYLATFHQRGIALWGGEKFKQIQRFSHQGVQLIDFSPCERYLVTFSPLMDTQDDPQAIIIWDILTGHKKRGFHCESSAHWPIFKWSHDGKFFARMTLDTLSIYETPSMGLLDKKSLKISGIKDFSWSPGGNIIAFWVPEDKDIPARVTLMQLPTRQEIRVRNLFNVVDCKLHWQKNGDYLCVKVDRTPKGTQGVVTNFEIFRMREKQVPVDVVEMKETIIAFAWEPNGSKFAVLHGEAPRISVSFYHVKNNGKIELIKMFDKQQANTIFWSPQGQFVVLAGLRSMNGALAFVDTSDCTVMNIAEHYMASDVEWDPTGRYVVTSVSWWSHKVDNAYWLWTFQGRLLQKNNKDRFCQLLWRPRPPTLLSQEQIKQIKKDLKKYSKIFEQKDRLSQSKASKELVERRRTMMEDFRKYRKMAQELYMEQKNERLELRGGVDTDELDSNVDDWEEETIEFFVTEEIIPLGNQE
UniProt Q9NPA8: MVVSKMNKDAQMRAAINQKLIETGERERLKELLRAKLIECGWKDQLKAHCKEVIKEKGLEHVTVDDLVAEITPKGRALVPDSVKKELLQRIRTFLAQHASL
UniProt Q9BV81: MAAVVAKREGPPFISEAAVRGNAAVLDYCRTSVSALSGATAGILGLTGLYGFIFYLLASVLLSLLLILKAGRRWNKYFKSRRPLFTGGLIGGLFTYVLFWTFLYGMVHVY
UniProt P84090, whole entry, looked up: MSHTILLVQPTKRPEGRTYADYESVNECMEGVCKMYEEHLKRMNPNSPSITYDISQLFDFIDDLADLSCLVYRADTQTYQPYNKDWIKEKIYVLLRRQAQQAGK
UniProt Q92889: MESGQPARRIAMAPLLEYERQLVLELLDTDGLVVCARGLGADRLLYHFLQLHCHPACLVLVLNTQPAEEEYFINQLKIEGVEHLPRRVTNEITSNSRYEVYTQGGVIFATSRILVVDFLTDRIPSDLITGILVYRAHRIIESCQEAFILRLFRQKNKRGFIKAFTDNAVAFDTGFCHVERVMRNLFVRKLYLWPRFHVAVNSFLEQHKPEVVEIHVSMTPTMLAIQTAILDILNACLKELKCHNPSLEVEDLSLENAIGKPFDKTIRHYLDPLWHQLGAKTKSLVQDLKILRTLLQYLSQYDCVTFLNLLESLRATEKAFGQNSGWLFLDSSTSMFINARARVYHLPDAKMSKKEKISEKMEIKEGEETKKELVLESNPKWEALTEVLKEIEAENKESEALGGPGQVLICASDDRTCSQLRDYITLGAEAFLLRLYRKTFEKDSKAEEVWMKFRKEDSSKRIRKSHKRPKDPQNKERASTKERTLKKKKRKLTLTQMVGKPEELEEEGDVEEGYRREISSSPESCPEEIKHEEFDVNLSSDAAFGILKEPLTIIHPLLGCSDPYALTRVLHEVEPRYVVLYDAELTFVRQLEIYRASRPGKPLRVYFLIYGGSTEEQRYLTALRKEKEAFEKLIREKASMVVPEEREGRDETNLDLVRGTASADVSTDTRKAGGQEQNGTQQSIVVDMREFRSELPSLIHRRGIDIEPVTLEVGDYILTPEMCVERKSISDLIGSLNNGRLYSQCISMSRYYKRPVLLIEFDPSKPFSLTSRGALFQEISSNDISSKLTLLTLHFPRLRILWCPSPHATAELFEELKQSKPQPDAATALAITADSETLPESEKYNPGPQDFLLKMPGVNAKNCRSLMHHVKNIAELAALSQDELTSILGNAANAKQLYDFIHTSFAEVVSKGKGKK
UniProt P19447: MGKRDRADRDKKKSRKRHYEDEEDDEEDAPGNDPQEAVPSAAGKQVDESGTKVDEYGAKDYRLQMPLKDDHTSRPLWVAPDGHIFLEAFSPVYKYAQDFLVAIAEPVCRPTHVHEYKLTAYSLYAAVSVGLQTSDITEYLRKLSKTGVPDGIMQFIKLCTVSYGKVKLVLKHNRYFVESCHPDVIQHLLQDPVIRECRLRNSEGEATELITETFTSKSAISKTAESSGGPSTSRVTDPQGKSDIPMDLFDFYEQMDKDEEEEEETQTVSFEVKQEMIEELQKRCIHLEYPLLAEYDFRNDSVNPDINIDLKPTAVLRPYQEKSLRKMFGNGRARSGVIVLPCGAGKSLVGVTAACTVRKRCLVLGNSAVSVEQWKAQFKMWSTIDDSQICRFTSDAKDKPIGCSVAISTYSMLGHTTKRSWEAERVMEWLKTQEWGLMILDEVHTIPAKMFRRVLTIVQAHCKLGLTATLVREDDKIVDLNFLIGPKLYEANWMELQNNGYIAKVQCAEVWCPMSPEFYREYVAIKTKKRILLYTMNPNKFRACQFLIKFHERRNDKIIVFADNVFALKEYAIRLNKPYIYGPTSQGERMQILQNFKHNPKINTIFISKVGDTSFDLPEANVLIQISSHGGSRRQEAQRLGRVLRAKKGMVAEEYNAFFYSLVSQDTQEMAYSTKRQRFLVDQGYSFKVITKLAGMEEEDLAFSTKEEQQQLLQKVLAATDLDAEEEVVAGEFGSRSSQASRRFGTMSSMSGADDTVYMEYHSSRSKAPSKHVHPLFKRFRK
UniProt O43768: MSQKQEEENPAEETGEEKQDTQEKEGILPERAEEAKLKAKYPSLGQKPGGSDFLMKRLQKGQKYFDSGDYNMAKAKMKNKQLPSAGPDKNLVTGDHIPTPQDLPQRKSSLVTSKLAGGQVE
UniProt P54852: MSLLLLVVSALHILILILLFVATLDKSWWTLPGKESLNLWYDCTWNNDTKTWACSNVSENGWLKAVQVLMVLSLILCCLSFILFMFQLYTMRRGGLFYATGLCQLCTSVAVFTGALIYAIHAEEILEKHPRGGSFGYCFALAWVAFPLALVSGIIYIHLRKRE
UniProt O75356: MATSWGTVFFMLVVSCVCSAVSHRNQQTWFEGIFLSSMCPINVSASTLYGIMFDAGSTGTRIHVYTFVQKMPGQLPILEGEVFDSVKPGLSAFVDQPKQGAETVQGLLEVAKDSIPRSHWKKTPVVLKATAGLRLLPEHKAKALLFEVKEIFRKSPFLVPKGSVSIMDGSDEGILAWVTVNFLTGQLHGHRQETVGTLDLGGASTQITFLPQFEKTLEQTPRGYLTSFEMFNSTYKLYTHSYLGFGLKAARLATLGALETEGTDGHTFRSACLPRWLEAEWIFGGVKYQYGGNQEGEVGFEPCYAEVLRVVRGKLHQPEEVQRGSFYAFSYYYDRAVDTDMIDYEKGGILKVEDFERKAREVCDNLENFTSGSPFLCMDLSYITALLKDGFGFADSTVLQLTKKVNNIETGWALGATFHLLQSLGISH
UniProt Q9UI10, whole entry, looked up: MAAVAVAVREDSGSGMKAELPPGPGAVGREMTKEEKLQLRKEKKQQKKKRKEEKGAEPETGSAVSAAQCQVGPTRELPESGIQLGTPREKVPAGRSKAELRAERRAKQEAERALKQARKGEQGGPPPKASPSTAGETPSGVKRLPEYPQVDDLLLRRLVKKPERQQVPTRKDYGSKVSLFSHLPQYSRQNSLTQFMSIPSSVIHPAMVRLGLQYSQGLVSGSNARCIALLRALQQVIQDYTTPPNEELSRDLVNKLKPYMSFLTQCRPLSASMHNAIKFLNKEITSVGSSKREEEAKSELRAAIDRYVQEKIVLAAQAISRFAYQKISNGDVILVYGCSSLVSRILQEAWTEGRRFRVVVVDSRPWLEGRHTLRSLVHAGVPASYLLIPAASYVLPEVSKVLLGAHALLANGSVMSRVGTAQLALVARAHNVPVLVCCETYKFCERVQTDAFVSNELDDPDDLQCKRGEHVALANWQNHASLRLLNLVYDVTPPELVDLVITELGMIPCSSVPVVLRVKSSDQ
UniProt Q5J8M3, whole entry, looked up: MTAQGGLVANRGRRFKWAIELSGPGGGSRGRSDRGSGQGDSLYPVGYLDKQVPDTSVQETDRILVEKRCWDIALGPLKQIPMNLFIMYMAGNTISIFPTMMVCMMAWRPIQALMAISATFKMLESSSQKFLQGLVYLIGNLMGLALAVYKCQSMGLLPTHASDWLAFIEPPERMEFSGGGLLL
UniProt Q8NFI3: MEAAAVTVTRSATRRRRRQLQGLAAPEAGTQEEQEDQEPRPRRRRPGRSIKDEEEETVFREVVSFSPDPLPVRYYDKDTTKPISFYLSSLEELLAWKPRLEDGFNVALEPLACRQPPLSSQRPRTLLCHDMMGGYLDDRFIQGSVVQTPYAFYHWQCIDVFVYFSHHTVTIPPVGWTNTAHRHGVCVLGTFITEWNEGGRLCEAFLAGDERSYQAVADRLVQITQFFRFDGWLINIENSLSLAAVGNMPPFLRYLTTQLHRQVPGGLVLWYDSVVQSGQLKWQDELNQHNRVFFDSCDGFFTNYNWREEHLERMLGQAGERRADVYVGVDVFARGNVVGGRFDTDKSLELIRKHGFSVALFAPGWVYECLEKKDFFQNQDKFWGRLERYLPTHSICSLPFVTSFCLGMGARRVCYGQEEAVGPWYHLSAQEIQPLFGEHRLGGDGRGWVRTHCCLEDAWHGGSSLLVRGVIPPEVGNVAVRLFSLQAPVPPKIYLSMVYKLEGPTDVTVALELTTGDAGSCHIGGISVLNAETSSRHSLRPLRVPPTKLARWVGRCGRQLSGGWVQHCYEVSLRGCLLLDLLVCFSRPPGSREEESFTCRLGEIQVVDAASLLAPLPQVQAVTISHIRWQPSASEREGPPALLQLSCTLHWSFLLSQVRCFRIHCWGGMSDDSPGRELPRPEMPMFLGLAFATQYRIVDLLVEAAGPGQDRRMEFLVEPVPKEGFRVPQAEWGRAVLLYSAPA
UniProt Q9Y6I3: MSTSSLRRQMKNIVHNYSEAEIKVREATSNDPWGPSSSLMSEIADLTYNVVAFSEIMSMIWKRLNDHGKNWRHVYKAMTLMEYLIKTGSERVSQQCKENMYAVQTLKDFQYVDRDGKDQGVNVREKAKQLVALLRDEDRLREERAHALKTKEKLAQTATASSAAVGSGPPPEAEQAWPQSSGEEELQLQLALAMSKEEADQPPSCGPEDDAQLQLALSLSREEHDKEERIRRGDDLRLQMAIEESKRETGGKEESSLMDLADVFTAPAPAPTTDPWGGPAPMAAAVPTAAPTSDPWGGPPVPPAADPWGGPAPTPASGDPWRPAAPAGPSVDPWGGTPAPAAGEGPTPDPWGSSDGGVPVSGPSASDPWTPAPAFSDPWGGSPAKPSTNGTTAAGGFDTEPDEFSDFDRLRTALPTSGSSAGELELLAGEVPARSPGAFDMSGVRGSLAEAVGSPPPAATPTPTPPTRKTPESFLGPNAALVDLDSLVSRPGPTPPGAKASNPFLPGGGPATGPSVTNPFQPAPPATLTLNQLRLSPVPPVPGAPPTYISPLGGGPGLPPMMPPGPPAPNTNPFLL

These targets were tested with CCn1cc(-c2ccnc3[nH]c(-c4cccc(CN(C)C)c4)cc23)c(-c2ccc(NC(=O)N(C)C)cc2)n1 (assay: log2 fold change, soluble protein after heating vs DMSO (PISA); higher = thermal stabilisation; K562 lysate, 10 uM; active = over 0.2 and 3.5 SD of the protein, either way, in both replicates (recomputed)).
In short: (§1)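 Pellets of K562 cells were dounce-homogenised in PBS pH 7.4 with 1 mM MgCl2, and the crude extract was held at 1 mg/mL protein for a 30 min treatment with 10 μM compound. Aliquots were heated for 3 min over 48°C-58°C and pooled before NP-40 was added to 0.5% at 4°C. The supernatant from 21,000xg for 90 min was quantified by TMTpro 16plex LC-MS/MS with channel sums equalised. Values are reported from duplicates as log-two fold change in thermal stability relative to solvent controls.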

Row | Target | log2 fold change
1 | EIF3G (UniProt K7ER90) | inactive: -0.046
2 | EP300 (UniProt Q09472) | inactive: -0.151
3 | ERGIC2 (UniProt Q96RQ1) | inactive: 0.064
4 | ERAL1 (UniProt O75616) | inactive: -0.065
5 | EIF3F (UniProt O00303) | inactive: 0.188
6 | EMC3 (UniProt Q9P0I2) | inactive: -0.024
7 | ELMO1 (UniProt Q92556) | inactive: -0.029
8 | ERC1 (UniProt X6RLX0) | inactive: -0.002
9 | EIF3B isoform 2 (UniProt P55884) | inactive: 0
10 | ERI1 (UniProt Q8IV48) | inactive: 0.065
11 | ENY2 (UniProt Q9NPA8) | active: 0.886
12 | EMC7 (UniProt Q9NPA0) | active: -0.37
13 | EMC6 (UniProt Q9BV81) | inactive: 0.012
14 | EIF2D (UniProt P41214) | inactive: -0.02
15 | EIF2S3 (UniProt P41091) | inactive: 0.035
16 | ELF2 (UniProt Q15723) | inactive: 0.086
17 | ERH (UniProt P84090) | inactive: 0.009
18 | EPHX2 (UniProt P34913) | inactive: -0.044

Row | Target | log2 fold change
19 | EPS15L1 isoform 2 (UniProt Q9UBC2) | inactive: 0.035
20 | ERCC4 (UniProt Q92889) | inactive: -0.078
21 | ERCC3 (UniProt P19447) | inactive: -0.046
22 | EPPK1 (UniProt P58107) | inactive: -0.048
23 | EIF6 (UniProt P56537) | inactive: -0.056
24 | ENSA isoform 3 (UniProt O43768) | inactive: 0.212
25 | EMP3 (UniProt P54852) | active: -0.967
26 | EIF4E isoform 2 (UniProt P06730) | inactive: 0.007
27 | ENTPD5 (UniProt O75356) | inactive: -0.033
28 | EPRS (UniProt P07814) | inactive: -0.025
29 | EIF2B4 isoform 2 (UniProt Q9UI10) | inactive: -0.02
30 | EMC4 (UniProt Q5J8M3) | inactive: -0.004
31 | ELP2 isoform 6 (UniProt Q6IA86) | inactive: -0.097
32 | ENGASE (UniProt Q8NFI3) | inactive: 0.028
33 | ENPP3 (UniProt O14638) | inactive: -0.006
34 | ENDOG (UniProt Q14249) | inactive: -0.002
35 | EPN1 (UniProt Q9Y6I3) | inactive: 0.144
36 | EMD (UniProt P50402) | inactive: -0.02

The targets below were run with CN1CCC(CNc2ccc3ncc(-c4cccc(OC(F)(F)F)c4)n3n2)CC1 in the same assay as above.
In short: as §1

Row | Target | log2 fold change
37 | EIF3G (UniProt K7ER90) | inactive: 0.177
38 | EP300 (UniProt Q09472) | inactive: 0.058
39 | ERGIC2 (UniProt Q96RQ1) | inactive: -0.045
40 | ERAL1 (UniProt O75616) | active: -0.359
41 | EIF3F (UniProt O00303) | inactive: -0.078
42 | EMC3 (UniProt Q9P0I2) | inactive: -0.017
43 | ELMO1 (UniProt Q92556) | inactive: -0.024
44 | ERC1 (UniProt X6RLX0) | inactive: -0.012
45 | EIF3B isoform 2 (UniProt P55884) | inactive: -0.007
46 | ERI1 (UniProt Q8IV48) | inactive: -0.112
47 | ENY2 (UniProt Q9NPA8) | active: -0.406
48 | EMC7 (UniProt Q9NPA0) | inactive: 0.125
49 | EMC6 (UniProt Q9BV81) | inactive: 0.008
50 | EIF2D (UniProt P41214) | inactive: -0.071
51 | EIF2S3 (UniProt P41091) | inactive: -0.04
52 | ELF2 (UniProt Q15723) | inactive: -0.078
53 | ERH (UniProt P84090) | inactive: 0.012
54 | EPHX2 (UniProt P34913) | inactive: 0.119

Row | Target | log2 fold change
55 | EPS15L1 isoform 2 (UniProt Q9UBC2) | inactive: -0.004
56 | ERCC4 (UniProt Q92889) | inactive: 0.114
57 | ERCC3 (UniProt P19447) | inactive: -0.096
58 | EPPK1 (UniProt P58107) | inactive: -0.038
59 | EIF6 (UniProt P56537) | inactive: 0.054
60 | ENSA isoform 3 (UniProt O43768) | inactive: -0.058
61 | EMP3 (UniProt P54852) | active: 0.365
62 | EIF4E isoform 2 (UniProt P06730) | inactive: 0.032
63 | ENTPD5 (UniProt O75356) | inactive: 0.064
64 | EPRS (UniProt P07814) | inactive: -0.035
65 | EIF2B4 isoform 2 (UniProt Q9UI10) | inactive: 0.002
66 | EMC4 (UniProt Q5J8M3) | inactive: -0.048
67 | ELP2 isoform 6 (UniProt Q6IA86) | inactive: 0.027
68 | ENGASE (UniProt Q8NFI3) | inactive: 0.052
69 | ENPP3 (UniProt O14638) | inactive: 0.024
70 | ENDOG (UniProt Q14249) | inactive: 0.013
71 | EPN1 (UniProt Q9Y6I3) | inactive: -0.015
72 | EMD (UniProt P50402) | inactive: -0.033
